From paper PMC5955987
These are yes or no findings as the source states them, for the method shown. Some results given as binding are weak or reduced against the parent protein; the word gives no strength.

Target: Fur, ferric uptake regulator of Acinetobacter baumannii (Acinetobacter baumannii) (UniProt Q9ZAJ4)
Assay: two-hybrid; yeast MaV203, Gal4 DB and AD fusions; 0.75 mM FeCl3 in the growth medium; under all conditions tested

B1: Fur, ferric uptake regulator of Acinetobacter baumannii (protein, UniProt Q9ZAJ4 1-145)
chain: MPISNQDLRKAGLKVTLPRIKILELLENSKQHHLSAEDIYKTLLEQGEDVGLATVYRVLTQFEAAGIIQRHHFENNHSVFEIMQEDHHDHLVCQNCNKVIEFTNDVIEKEQHSVAEQHGFTLTGHSLNLYGYCNEPECQEALRKK
  binding: binds
